From patent publication US6361595B1, “Process for the preparation of pigment compositions” (Ciba Specialty Chemicals Corporation, priority 1999, dated 2002)
At least one structure is not confirmed: it was looked up by name or label, or the drawing left a doubt.

Tested on: mixed culture of Gram-positive cocci, Gram-negative cocci, Gram-positive rods and Gram-negative rods
Test: Microbial contamination of dried Pigment Yellow 13 powder (Example 5 procedure) after mixing filter cake with bacterial culture
Assay type: cell-based, bacteria
Conditions: PY13, no DBS, 3.0 parts biocide
Experimental: Susceptibility to microbial contamination is assessed according to the following procedure:
Microbial contamination is assessed using individual bacteria of the morphological types, Gram-positive cocci, Gram-negative cocci, Gram-positive rods and Gram-negative rods which are maintained on Nutrient Agar slopes. When required, each is cultured in Nutrient broth at 30° C. until an organism count of >10^8 colony-forming units (cfu) per milliliter (ml) is reached. The individual cultures are then mixed in equal proportions to provide a mixed culture which is then used immediately.
10 mg of the sieved powder and one drop of sterile water are evenly spread on a Nutrient Agar plate with a glass spreader under aseptic conditions and the plate incubated at 30° C. for 48 hours, The number of bacterial colonies evident on each plate are then counted and expressed as the number of colony-forming units per gram (cfu/g).
A solution of 8.9 parts of acetic acid (100%) and 15 parts hydrochloric acid (36%) in 100 parts water are added to a solution of 63 parts of acetoacet-m-xylidide dissolved in a solution of 25.2 parts of sodium hydroxide (50%) in 676 parts of water at a temperature of 20° C. The resultant slurry is reacted with 36.9 parts of a previously tetrazotised solution of 3,3′-dichlorobenzidine, with simultaneous addition of sodium hydroxide solution (10%) to maintain pH 4.5-5.5. […]

## Cn1sccc1=O [MIT, Methylisothiazolin-3-one]
  microbial contamination, colony-forming units per gram: 1.010^3 cfu/g
